The other results are listed elsewhere or left out.
The sequences below were run against T1, OsSMF1 (Oryza sativa, UniProt Q6ZLB0 1-436) (assay: protein-binding microarray (RPBM); PBS, 2% BSA, 51.3 ng/ul salmon testes DNA, 50 uM zinc acetate, 200 nM TF, 25 C, 1 h; high values mean tight binding). Conditions: protein: recombinant; tags: N-terminal polyhistidine and DsRed monomer fusion (pET32a); chain copies: 2; label: CyDye5-dUTP incorporated in the synthesized complementary strand; 3' TTTTT single-stranded linker to array surface; dsDNA, one strand shown.
T1 sequence: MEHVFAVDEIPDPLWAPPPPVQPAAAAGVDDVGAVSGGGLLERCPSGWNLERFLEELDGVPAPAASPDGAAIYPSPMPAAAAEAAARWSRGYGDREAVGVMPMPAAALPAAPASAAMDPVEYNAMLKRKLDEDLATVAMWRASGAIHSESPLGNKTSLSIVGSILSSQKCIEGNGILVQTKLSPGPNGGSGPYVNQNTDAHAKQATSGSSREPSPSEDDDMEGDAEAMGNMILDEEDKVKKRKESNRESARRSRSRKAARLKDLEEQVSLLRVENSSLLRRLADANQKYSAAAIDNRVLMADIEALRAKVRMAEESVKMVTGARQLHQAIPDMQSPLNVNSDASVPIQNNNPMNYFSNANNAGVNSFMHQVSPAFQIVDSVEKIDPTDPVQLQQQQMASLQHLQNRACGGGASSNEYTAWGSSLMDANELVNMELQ
Method in brief: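 Using Ni–NTA, transcription factors fused N-terminally to polyhistidine and DsRed were purified after expression in E. coli BL21-CodonPlus. These were incubated at 200 nM with a blocked, double-stranded custom Agilent array for 1 h at 25 °C in a buffer containing 50 µM zinc acetate, and the array was washed. The binding signal is per-feature fluorescence intensity (arbitrary units) on an Axon 4000B scanner.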

Sequence	binding signal
TCGGGTGACGCGTGTATATGCGCCACTATGTGGATGTGTTCGGAGTCACCTAGTGCAG	7400 fluorescence intensity (a.u.)
CTTGCATGACATCGTGTCCCACCTCCCCGCCAAGGACTCGCGGAGTCACCTAGTGCAG	9190 fluorescence intensity (a.u.)
GTCGGGAGGAGGTGAGAGAGGAGGAGATAAGGCTGTGGGGCGGAGTCACCTAGTGCAG	4090 fluorescence intensity (a.u.)
CGTCTCAATAATCCGGACTCACTCACATATGCTGCCTTCGCGGAGTCACCTAGTGCAG	3910 fluorescence intensity (a.u.)
ATATATTTAAGTACCAAGTGTCAAAATATGTGTGGTTTTCCGGAGTCACCTAGTGCAG	3620 fluorescence intensity (a.u.)
AGCCACCCCGCCGCCGGCGATCCCCGGCATCCTCGCCACCCGGAGTCACCTAGTGCAG	3780 fluorescence intensity (a.u.)
TGGGTCCCATGCTGACTCGGCCGCCACGTCGGACAAAACCCGGAGTCACCTAGTGCAG	27300 fluorescence intensity (a.u.)
CTCTAATCCATTGATCAATCATCGACACCTCACGTTACAACGGAGTCACCTAGTGCAG	3880 fluorescence intensity (a.u.)
GTGCCCACACGTGGCTCGAATCCGAGAGGGACAGCGTCCTCGGAGTCACCTAGTGCAG	4110 fluorescence intensity (a.u.)
AGACACCCAGTCACAGCTCATAGTATTTGCATCCCCACAGCGGAGTCACCTAGTGCAG	3800 fluorescence intensity (a.u.)
GGCCCGCCTTCCAGCCTCAAACACCATGACACGTGTACCCCGGAGTCACCTAGTGCAG	24100 fluorescence intensity (a.u.)
CCGGCAGATCAATCTCGGTCAGACTGACTTCCGTCGATTTCGGAGTCACCTAGTGCAG	3200 fluorescence intensity (a.u.)
GTTCTTCTCCAACTCACCCTGTTTCTCTCACCAAATGCCCCGGAGTCACCTAGTGCAG	4320 fluorescence intensity (a.u.)
ATGTAGATTTGATGCTGATGCACACGATTCCGACTAAGAGCGGAGTCACCTAGTGCAG	3590 fluorescence intensity (a.u.)
CAGTCCTCCAAAATTTAATAACACCAAAATTCGAAATATTCGGAGTCACCTAGTGCAG	3430 fluorescence intensity (a.u.)
AGTGAGAGGAGGTAGCTCTGCCACCGGAGCGGCTGCGGGGCGGAGTCACCTAGTGCAG	3390 fluorescence intensity (a.u.)
CTTTGTCTTAGTATGGTGACTGGTTGCAAATTGATTTGGTCGGAGTCACCTAGTGCAG	3410 fluorescence intensity (a.u.)
GTTTCCCTTAATCCCCACGTGCGTGCGCGCCCGAGCGGGACGGAGTCACCTAGTGCAG	3430 fluorescence intensity (a.u.)
TTTCACTATGGTATATATAATGGTATAATGGTCATTTAATCGGAGTCACCTAGTGCAG	3340 fluorescence intensity (a.u.)
GCCGCGCCGTCCTGTGTGTGCGTGGCGCCAATGCATGCTACGGAGTCACCTAGTGCAG	3590 fluorescence intensity (a.u.)
TCCTCCAGATGTTACAGTCTCCGAATTTCAGTGATGTCACCGGAGTCACCTAGTGCAG	11800 fluorescence intensity (a.u.)
CGAACGAAATCGCCGACACGTGGATCTGCACGCTGAAGCTCGGAGTCACCTAGTGCAG	10700 fluorescence intensity (a.u.)
TGCCAATGGTGTGTGCAATTGCAACATGCGTTTGGTTGTGCGGAGTCACCTAGTGCAG	4100 fluorescence intensity (a.u.)
GTTCCGATGCTAGTCTATGAGTTCGTCCCGAATGGAACATCGGAGTCACCTAGTGCAG	4300 fluorescence intensity (a.u.)
GCCCCGGCGCGGCGCGCGGAGACGTGTCCCGATCCAACTCCGGAGTCACCTAGTGCAG	3200 fluorescence intensity (a.u.)
TTTCTCATGCCATGCACGAATCTCAGTGTGGCGTGAATTTCGGAGTCACCTAGTGCAG	3400 fluorescence intensity (a.u.)
CAAGAGTTTCGGATACGCACGCCACGCGCAAACCCGATCTCGGAGTCACCTAGTGCAG	3150 fluorescence intensity (a.u.)

Sequence	binding signal
TTTTGACCCGGTTTTAGCCTACGTGACGGCTAAGTCAGCGCGGAGTCACCTAGTGCAG	4480 fluorescence intensity (a.u.)
GAGATCTGCTTAACTCCAGTGCAGGTCCAAAACTCGCCTTCGGAGTCACCTAGTGCAG	29200 fluorescence intensity (a.u.)
GTTTGTGTGAGTTATTGGACACCTCCTACAAATTCTAAGTCGGAGTCACCTAGTGCAG	3670 fluorescence intensity (a.u.)
CTGCAGGCCATGCAGGCGATGCTGTTCCGCTCCACCCGCCCGGAGTCACCTAGTGCAG	3410 fluorescence intensity (a.u.)
TTTCTAATCGGACGGCGCGCAAGTCCGTGCACTCGTGGCACGGAGTCACCTAGTGCAG	4750 fluorescence intensity (a.u.)
CGTTATAGCATGAGCGTCATGGATGATGCATTGTAATGTTCGGAGTCACCTAGTGCAG	3980 fluorescence intensity (a.u.)
CAAGCCAAGTCTGAAGAAGAAGAACTAGTCATCGCTTGCCCGGAGTCACCTAGTGCAG	3820 fluorescence intensity (a.u.)
ACCCTCGCCACCGTCCCCGCCTCCGTCGACAGCAGCCCGCCGGAGTCACCTAGTGCAG	3160 fluorescence intensity (a.u.)
GGGATAGCAGGACACGTGTGTATAGCTGCTGCGCCTGCCTCGGAGTCACCTAGTGCAG	9260 fluorescence intensity (a.u.)
CGCCCGCGAAGGCCGCCGCGCCACGCGTGAACTTCTCCTTCGGAGTCACCTAGTGCAG	3190 fluorescence intensity (a.u.)
GGTCAAATGCCGACGCGGCCTTCGCATGCATATCCGCTTCCGGAGTCACCTAGTGCAG	4630 fluorescence intensity (a.u.)
TCACGAGCCGACACGTGTCTCCTGACGTGGTACCCTTTCCCGGAGTCACCTAGTGCAG	21900 fluorescence intensity (a.u.)
AAATGTGACATCAGCTATGTGGCCAAAAGGGTCCCCTAGGCGGAGTCACCTAGTGCAG	3820 fluorescence intensity (a.u.)
TGAAATCGTCACCAAACACGTCTTCACCTTCCATAAATCCCGGAGTCACCTAGTGCAG	4810 fluorescence intensity (a.u.)
GAGCGACGACGATGGGAGAGAGCGGGAGGCGGCGGCGGTGCGGAGTCACCTAGTGCAG	29800 fluorescence intensity (a.u.)
AATGGTGGGCTAGATGACCTGGATTCAAAATATCACTCCTCGGAGTCACCTAGTGCAG	4100 fluorescence intensity (a.u.)
AAAGAGGCACAGATGTGGATAGTGATGCTAAAGGCAGCTTCGGAGTCACCTAGTGCAG	7990 fluorescence intensity (a.u.)
TGAAGTGCACGATAGCGTCGTCCGTTGTGTGACTCATCAGCGGAGTCACCTAGTGCAG	5460 fluorescence intensity (a.u.)
TTAGCAACCTATCGTCATAGAGAGACCCAATGAACCCTTGCGGAGTCACCTAGTGCAG	3860 fluorescence intensity (a.u.)
CTCATGTTGTTTGACGGTTTGACTCTCCTAGTTTATCATCCGGAGTCACCTAGTGCAG	3370 fluorescence intensity (a.u.)
TTCGTGCCGTCCTTTTACAATTTTATACGTGTCTTATTACCGGAGTCACCTAGTGCAG	4830 fluorescence intensity (a.u.)
GTCCATATATCCGATGTGACACGCCAACACTTTTCGTATCCGGAGTCACCTAGTGCAG	4090 fluorescence intensity (a.u.)
CTCCAACCCGCTCCGTGAGATGACGTCCACACAGTGGGATCGGAGTCACCTAGTGCAG	7010 fluorescence intensity (a.u.)
GATTTCGATTTTGTGGCCTCGATTTTGACTTGAGAAGGCACGGAGTCACCTAGTGCAG	3480 fluorescence intensity (a.u.)
CGACCGTCAACAGTAACGCACCCGCGTCATTCCAATAGAGCGGAGTCACCTAGTGCAG	3910 fluorescence intensity (a.u.)
TTTTCATTTTAGTGCCACGTAAGCACCACATCGATGCCACCGGAGTCACCTAGTGCAG	41200 fluorescence intensity (a.u.)
CCACAAGTGACCTGTGGCACATGCATCCGTGGCATTGCATCGGAGTCACCTAGTGCAG	6070 fluorescence intensity (a.u.)

Reference: article PMC7819943, “Rice protein-binding microarrays: a tool to detect cis-acting elements near promoter regions in rice”
